For at least one compound, name, drawing or mass did not settle the structure.
Columns and labels:
MCF7 cells = assay: Trypan blue live cell count, MCF7 cells not treated with Dox; format: cell-based; conditions: 10 nM, 48 hours, MCF7 without Dox
[1] = tested on: MCF7 cells in which the overexpression of TGase2 was induced; assay: Trypan blue live cell count, MCF7 cells with Dox-induced TGase2 overexpression (rapamycin resistance); format: cell-based; conditions: 10 nM each, 48 hours, MCF7 treated with 10 nM Dox (TGase2 overexpressed)

CO[C@H]1C[C@@H]2CC[C@@H](C)[C@@](O)(O2)C(=O)C(=O)N2CCCC[C@H]2C(=O)O[C@H]([C@H](C)C[C@@H]2CC[C@@H](O)[C@H](OC)C2)CC(=O)[C@H](C)/C=C(\C)[C@@H](O)[C@@H](OC)C(=O)[C@H](C)C[C@H](C)/C=C/C=C/C=C/1C [rapamycin]
cancer cell death effect (MCF7 cells): significant cancer cell death effect was exhibited | cancer cell death effect [1]: not significantly exhibited

From US20200237738A1, “PHARMACEUTCAL COMPOSITION FOR PREVENTING OR TREATING CANCER, CONTAINING STREPTONIGRIN AND RAPAMYCIN AS ACTIVE INGREDIENTS” (MD BIOLAB CO., LTD., priority 2017, published 2020)
